These are yes or no findings as the source states them, for the method shown. In cells and extracts the contact can be indirect. Some binding calls cover weakened binding; strength is not graded here.

Protein sequences, listed by entry. Tags and fused reporters are not part of them. Lines headed by an entry give the natural chain unless they say otherwise; changes in a name come on top.
UniProt P08183: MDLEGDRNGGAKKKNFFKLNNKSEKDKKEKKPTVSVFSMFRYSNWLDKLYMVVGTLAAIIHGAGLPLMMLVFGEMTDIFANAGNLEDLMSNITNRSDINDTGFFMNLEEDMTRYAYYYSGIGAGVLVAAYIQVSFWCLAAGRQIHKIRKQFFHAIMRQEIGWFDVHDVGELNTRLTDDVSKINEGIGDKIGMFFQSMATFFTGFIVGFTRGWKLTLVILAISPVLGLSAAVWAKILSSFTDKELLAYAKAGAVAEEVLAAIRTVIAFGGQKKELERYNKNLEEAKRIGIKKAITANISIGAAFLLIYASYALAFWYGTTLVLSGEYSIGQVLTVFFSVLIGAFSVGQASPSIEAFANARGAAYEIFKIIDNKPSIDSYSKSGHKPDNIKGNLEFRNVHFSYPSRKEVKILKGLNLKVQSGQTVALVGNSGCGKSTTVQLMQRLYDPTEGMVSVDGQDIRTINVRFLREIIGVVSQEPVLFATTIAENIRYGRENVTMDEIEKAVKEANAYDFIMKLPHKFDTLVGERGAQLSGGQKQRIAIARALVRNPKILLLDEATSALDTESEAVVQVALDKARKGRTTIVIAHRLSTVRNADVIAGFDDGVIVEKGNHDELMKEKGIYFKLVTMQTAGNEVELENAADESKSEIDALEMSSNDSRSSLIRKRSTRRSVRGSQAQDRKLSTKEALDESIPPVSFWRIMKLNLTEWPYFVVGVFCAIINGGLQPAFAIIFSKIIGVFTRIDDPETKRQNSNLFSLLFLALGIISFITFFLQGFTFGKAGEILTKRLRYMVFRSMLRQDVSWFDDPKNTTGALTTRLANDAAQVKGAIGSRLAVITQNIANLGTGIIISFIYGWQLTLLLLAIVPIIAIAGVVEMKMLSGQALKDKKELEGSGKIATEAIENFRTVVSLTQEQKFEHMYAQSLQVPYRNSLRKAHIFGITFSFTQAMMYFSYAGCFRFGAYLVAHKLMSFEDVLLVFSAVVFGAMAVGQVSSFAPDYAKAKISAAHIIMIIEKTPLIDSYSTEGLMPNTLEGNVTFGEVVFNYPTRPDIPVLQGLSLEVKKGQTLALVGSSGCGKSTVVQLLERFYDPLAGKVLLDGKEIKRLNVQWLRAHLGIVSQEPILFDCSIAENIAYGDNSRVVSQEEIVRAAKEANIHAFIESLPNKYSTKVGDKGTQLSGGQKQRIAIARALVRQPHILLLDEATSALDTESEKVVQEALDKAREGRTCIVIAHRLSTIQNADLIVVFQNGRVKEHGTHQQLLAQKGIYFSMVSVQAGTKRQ
UniProt Q03135: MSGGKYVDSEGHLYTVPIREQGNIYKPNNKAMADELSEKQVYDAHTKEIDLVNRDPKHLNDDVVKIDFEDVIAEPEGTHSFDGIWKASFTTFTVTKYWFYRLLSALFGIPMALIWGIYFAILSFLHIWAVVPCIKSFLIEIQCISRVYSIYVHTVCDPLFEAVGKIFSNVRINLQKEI

This passage reports binding results from publication PMC6529477.

The target of assay [1] is P-glycoprotein (human (endogenous in MCF-7/ADR)) (UniProt P08183). Nature of the assay: co-IP; lysates of Cav1-silenced MCF-7/ADR cells rescued with Cav1 WT or Cav1 Y14E; immunoprecipitated with anti-P-gp or anti-Cav1 antibodies, western blotting. In general terms: In western blotting, separated proteins are transferred to a membrane and probed.
Assay [2] deals with Cav1 (Y14E) phosphor-tyrosine mimicking mutant (UniProt Q03135). The description is as above.
The target of assay [3] is wild-type Cav1 (rescued expression) (UniProt Q03135). Described as above.
In assay [4] the target is caveolin-1 (human (endogenous in MCF-7/ADR)) (UniProt Q03135). In words: co-IP; endogenous proteins in MCF-7/ADR lysates (Tris-Triton X-100-based lysis buffer); 1 ug of anti-P-gp, Src, Rack1 or Cav1 antibody overnight at 4 C, protein G-agarose, western blotting; also in control, Rack1-silenced (siRNA) and Src-silenced (siRNA) cells.
For assay [5], the target named is P-glycoprotein (human (endogenous in MCF-7/ADR)) (UniProt P08183). Described as above.

As to “Cav1 (Y14E) phosphor-tyrosine mimicking mutant (from UniProt Q03135 1-178)”, the binding entry in assay [1] is listed as “binds”.
Consider “P-glycoprotein (from UniProt P08183 1-1280)”, for which the binding result in assay [2], in assay [3] and in assay [4] was “binds” throughout.
As for caveolin-1 (from UniProt Q03135 1-178), in assay [5], the binding entry is listed as “binds”.
Take “wild-type Cav1 (rescued expression) (from UniProt Q03135 1-178)”: in assay [1], the binding result is reported as “binds”.
